# Reference: the supplement of paper PMC10849652
# Sequences of proteins named here, by UniProt entry; tags and fusion partners are left off. A change or cut given only in a name is not applied to a line headed by its entry.
# UniProt P15407: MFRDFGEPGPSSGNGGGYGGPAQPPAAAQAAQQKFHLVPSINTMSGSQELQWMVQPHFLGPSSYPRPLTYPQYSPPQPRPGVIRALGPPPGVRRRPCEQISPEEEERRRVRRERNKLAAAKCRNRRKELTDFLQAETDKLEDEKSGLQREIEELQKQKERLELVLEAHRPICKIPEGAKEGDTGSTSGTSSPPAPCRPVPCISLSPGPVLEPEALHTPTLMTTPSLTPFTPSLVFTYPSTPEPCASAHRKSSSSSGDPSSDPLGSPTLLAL
# UniProt Q05932: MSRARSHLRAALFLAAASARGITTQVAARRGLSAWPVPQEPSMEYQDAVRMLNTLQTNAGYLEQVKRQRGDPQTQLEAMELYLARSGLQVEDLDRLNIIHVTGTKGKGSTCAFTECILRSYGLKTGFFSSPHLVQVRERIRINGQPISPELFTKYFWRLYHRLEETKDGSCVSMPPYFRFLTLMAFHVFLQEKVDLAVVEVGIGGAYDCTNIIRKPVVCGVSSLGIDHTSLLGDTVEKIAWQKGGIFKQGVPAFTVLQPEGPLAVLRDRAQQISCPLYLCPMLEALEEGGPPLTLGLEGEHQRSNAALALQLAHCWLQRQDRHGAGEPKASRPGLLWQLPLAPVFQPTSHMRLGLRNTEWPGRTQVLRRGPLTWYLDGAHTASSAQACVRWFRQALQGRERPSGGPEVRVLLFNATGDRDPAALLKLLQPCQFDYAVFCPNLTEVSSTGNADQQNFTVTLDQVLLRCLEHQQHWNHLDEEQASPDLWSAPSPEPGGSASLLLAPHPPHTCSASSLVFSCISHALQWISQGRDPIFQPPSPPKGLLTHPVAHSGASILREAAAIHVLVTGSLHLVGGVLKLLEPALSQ
# UniProt P85037: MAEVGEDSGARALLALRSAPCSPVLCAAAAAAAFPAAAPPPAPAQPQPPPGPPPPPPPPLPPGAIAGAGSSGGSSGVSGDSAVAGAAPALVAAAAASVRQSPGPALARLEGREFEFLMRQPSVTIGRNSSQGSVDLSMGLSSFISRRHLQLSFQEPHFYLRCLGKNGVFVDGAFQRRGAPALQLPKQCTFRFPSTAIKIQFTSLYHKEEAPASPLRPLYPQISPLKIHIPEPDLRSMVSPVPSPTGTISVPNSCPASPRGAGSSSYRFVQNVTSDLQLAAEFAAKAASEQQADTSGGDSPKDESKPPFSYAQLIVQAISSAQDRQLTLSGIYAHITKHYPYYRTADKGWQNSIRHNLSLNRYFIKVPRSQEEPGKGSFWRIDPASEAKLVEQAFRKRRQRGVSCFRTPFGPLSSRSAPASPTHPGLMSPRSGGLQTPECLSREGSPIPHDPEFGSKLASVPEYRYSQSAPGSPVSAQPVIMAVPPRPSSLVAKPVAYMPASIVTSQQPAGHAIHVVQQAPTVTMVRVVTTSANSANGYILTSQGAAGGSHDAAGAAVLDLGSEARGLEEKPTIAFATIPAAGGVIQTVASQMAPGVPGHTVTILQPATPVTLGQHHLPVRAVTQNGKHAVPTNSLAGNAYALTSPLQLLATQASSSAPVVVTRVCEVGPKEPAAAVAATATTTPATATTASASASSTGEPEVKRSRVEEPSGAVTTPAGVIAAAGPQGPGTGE
# UniProt P04066: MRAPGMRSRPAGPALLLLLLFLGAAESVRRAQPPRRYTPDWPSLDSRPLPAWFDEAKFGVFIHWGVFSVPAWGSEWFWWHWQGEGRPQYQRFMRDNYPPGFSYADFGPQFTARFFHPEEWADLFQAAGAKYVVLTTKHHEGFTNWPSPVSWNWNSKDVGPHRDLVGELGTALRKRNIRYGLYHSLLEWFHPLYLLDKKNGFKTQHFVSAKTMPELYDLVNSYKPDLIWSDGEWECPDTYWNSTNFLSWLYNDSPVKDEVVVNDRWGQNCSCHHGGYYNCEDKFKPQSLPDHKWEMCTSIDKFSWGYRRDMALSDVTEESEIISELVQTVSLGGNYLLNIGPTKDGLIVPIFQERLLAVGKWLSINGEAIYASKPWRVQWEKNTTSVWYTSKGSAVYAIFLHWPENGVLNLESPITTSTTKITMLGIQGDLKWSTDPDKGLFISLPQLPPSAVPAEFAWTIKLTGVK
# UniProt P23434: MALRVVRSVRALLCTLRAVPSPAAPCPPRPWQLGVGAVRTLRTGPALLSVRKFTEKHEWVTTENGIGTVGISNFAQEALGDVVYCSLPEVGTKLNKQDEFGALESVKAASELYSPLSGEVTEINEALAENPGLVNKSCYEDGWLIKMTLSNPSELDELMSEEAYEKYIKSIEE
# UniProt Q8N9F7: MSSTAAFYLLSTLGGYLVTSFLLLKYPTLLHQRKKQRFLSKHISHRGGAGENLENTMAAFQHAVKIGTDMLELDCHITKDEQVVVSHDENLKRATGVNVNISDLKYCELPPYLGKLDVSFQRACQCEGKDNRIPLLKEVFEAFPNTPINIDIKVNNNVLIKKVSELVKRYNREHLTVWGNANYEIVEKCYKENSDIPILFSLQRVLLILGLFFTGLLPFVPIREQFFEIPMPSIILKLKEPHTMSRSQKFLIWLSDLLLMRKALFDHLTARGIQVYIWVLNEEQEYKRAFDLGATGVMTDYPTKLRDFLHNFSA
# UniProt Q06546: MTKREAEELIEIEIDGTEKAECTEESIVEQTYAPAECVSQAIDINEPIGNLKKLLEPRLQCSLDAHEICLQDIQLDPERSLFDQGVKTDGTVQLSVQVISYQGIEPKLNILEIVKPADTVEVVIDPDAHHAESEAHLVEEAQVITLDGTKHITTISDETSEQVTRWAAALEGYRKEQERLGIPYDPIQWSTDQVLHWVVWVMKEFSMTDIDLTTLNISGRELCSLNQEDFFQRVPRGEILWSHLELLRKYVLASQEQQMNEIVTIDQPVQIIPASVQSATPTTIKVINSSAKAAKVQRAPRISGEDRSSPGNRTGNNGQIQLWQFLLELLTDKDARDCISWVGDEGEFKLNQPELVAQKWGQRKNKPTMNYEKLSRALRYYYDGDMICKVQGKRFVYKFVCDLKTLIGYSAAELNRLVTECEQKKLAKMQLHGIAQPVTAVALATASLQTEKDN
# UniProt Q8NB37: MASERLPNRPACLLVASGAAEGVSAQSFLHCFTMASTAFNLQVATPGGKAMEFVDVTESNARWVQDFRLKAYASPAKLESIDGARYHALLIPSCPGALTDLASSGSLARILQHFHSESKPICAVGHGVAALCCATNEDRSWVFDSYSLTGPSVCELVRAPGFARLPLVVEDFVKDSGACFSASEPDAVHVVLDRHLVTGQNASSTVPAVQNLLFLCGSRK
# UniProt Q9UJ14: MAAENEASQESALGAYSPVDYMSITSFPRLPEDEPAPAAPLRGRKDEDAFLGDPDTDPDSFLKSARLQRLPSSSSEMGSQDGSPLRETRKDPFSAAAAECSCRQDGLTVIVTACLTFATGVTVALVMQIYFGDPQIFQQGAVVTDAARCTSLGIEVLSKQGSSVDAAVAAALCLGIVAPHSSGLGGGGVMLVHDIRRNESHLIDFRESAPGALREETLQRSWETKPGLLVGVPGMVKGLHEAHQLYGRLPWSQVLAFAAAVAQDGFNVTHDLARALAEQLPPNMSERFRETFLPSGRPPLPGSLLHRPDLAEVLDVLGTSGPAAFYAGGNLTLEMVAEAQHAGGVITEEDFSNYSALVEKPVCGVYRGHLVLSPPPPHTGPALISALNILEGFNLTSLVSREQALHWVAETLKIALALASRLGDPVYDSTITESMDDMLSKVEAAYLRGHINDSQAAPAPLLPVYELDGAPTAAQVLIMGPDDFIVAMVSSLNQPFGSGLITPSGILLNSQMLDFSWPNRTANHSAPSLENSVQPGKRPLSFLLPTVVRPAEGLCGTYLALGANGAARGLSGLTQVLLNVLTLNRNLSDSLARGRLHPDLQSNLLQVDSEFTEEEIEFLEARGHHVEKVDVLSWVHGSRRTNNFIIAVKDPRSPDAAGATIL
# UniProt P54803: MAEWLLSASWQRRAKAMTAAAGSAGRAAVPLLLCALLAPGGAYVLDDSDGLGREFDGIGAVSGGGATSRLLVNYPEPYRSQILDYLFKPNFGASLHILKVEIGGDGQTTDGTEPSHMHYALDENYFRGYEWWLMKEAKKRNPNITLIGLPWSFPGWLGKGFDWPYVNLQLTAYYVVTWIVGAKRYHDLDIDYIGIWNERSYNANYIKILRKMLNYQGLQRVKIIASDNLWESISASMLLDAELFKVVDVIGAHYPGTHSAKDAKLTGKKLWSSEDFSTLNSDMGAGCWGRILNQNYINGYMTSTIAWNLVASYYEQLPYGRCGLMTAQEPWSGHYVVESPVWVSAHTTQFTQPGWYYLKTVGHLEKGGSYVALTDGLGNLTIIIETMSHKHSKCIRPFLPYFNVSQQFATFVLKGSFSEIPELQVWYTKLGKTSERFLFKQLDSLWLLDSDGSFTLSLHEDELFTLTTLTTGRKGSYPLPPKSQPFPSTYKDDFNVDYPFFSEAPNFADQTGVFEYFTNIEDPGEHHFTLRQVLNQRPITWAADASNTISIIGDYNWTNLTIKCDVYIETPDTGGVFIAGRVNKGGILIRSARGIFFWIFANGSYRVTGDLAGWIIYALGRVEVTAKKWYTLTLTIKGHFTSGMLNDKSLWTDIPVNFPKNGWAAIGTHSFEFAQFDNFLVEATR
# UniProt Q9H0R8, whole entry, looked up: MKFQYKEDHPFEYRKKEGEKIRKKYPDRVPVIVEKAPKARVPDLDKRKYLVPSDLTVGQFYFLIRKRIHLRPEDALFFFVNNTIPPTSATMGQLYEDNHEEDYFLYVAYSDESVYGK
# UniProt Q8IWJ2: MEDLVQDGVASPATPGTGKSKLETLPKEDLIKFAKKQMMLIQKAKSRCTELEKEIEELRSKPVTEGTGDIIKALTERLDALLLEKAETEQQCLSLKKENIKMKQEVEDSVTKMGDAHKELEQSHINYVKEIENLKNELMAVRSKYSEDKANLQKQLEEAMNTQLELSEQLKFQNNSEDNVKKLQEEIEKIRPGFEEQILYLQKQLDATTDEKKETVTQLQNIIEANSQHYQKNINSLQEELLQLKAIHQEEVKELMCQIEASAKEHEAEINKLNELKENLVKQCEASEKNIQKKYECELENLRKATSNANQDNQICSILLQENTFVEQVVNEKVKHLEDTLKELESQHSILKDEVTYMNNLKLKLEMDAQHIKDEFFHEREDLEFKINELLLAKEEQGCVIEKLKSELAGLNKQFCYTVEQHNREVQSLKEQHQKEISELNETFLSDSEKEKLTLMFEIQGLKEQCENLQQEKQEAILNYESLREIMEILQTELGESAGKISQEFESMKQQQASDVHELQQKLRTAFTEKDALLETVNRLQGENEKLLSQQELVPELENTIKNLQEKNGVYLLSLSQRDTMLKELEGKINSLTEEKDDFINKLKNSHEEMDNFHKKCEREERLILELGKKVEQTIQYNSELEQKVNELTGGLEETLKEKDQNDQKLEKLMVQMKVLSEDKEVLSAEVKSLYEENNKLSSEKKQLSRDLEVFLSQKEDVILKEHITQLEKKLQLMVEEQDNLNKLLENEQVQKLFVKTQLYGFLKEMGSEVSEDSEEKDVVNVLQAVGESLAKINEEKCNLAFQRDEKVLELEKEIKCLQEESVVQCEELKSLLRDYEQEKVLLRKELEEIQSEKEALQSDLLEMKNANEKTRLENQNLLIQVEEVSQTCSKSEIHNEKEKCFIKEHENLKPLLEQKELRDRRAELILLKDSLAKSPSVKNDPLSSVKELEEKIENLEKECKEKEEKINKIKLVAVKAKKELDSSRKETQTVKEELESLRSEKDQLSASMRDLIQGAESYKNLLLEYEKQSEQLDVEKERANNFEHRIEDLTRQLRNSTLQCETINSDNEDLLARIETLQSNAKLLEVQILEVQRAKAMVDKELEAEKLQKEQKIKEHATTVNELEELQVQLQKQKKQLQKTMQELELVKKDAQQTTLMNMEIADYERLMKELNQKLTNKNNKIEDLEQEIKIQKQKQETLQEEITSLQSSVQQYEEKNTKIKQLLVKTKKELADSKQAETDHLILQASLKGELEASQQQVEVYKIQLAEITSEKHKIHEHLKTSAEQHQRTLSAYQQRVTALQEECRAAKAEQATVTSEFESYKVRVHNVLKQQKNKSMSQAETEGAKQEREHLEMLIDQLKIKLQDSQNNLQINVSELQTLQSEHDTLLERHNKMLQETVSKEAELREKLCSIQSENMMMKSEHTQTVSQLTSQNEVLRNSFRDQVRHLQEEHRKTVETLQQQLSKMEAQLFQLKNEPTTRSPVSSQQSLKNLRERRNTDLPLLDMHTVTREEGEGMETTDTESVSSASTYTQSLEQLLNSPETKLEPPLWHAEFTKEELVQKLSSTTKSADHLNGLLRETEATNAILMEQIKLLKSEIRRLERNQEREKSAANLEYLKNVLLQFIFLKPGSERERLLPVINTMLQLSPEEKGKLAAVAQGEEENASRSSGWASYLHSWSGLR
# UniProt P0CL80: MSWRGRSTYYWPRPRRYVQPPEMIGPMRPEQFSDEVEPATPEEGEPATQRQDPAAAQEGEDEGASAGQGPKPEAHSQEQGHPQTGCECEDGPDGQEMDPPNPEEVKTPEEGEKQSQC
# The list shows a part of the results.
# Compound: CS(=O)(=O)c1ccc(-c2cnc(N)c(C(=O)Nc3ccccc3)n2)cc1
# Assay: log2 fold change, soluble protein after heating vs DMSO (PISA); higher = thermal stabilisation; K562 cells, 10 uM, 30 min; active = over 0.2 and 3.5 SD of the protein, either way, in both replicates (recomputed)
# Summary of the method: (§1)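 For each measurement, 10 μM compound was applied for 30 min to K562 cells at 2×10^6 cells/mL. Aliquots were heated for 3 min across 48°C-58°C, pooled, and extracted in PBS with 0.5% NP-40 at 4°C; the supernatant after 21,000xg for 90 min was soluble protein. This was quantified by TMTpro 16plex LC-MS/MS with channel sums equalised, and thermal stability was reported relative to control samples from duplicates, on a log2 fold-change scale.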
row,Target,log2 fold change
1,GALNT11 (UniProt Q8NCW6),inactive: 0.039
2,GEMIN6 (UniProt Q8WXD5),inactive: -0.076
3,GALNT10 (UniProt Q86SR1),inactive: 0.023
4,FOSL1 (UniProt P15407),inactive: -0.005
5,GALNT4 (UniProt Q8N4A0),inactive: 0.047
6,FNTB (UniProt P49356),inactive: 0.104
7,FPGS (UniProt Q05932),inactive: -0.057
8,GAB2 (UniProt Q9UQC2),inactive: -0.084
9,FOXK1 (UniProt P85037),active: -1.1
10,GAPVD1 isoform 6 (UniProt Q14C86),inactive: -0.012
11,FUCA1 (UniProt P04066),inactive: 0.019
12,GCSH (UniProt P23434),inactive: -0.009
13,GCLM (UniProt P48507),inactive: 0.058
14,GALK1 isoform 2 (UniProt P51570),inactive: -0.1
15,GCDH (UniProt Q92947),inactive: 0.004
16,GDPD1 (UniProt Q8N9F7),inactive: 0.086
17,GEMIN2 (UniProt O14893),inactive: 0.032

row,Target,log2 fold change
1,GABPA (UniProt Q06546),inactive: 0.059
2,GARS1 (UniProt H7C443),inactive: 0
3,GATD1 (UniProt Q8NB37),inactive: -0.026
4,GHDC (UniProt Q8N2G8),inactive: 0.041
5,GGT7 (UniProt Q9UJ14),inactive: 0.035
6,GALC (UniProt P54803),inactive: 0.03
7,GALNT1 (UniProt Q10472),inactive: 0.014
8,GABARAPL1 isoform 2 (UniProt Q9H0R8),inactive: 0.105
9,GEMIN5 (UniProt Q8TEQ6),inactive: -0.004
10,FOPNL (UniProt Q96NB1),inactive: -0.063
11,GDI1 (UniProt P31150),inactive: 0.018
12,GALNT2 (UniProt Q10471),inactive: 0.056
13,GCC2 (UniProt Q8IWJ2),inactive: 0.04
14,GATA1 (UniProt P15976),inactive: 0.03
15,GAGE12F (UniProt P0CL80),inactive: 0.019
16,FUCA2 (UniProt Q9BTY2),inactive: 0.021
17,GBF1 (UniProt Q92538),inactive: -0.032

# Compound: C[C@@H](Oc1cc(-c2cnn(C3CCNCC3)c2)cnc1N)c1c(Cl)ccc(F)c1Cl [crizotinib]
# Assay: as above
# Summary of the method: as §1
row,Target,log2 fold change
1,GALNT11 (UniProt Q8NCW6),inactive: 0.04
2,GEMIN6 (UniProt Q8WXD5),inactive: -0.055
3,GALNT10 (UniProt Q86SR1),inactive: 0.065
4,FOSL1 (UniProt P15407),inactive: -0.087
5,GALNT4 (UniProt Q8N4A0),inactive: -0.068
6,FNTB (UniProt P49356),inactive: 0.054
7,FPGS (UniProt Q05932),inactive: 0.326
8,GAB2 (UniProt Q9UQC2),active: -0.899
9,FOXK1 (UniProt P85037),inactive: 0.336
10,GAPVD1 isoform 6 (UniProt Q14C86),inactive: -0.145
11,FUCA1 (UniProt P04066),inactive: -0.079
12,GCSH (UniProt P23434),inactive: 0.073
13,GCLM (UniProt P48507),inactive: -0.003
14,GALK1 isoform 2 (UniProt P51570),inactive: -0.041
15,GCDH (UniProt Q92947),inactive: 0.058
16,GDPD1 (UniProt Q8N9F7),inactive: 0.035
17,GEMIN2 (UniProt O14893),inactive: -0.043

row,Target,log2 fold change
1,GABPA (UniProt Q06546),inactive: -0.028
2,GARS1 (UniProt H7C443),inactive: 0.089
3,GATD1 (UniProt Q8NB37),inactive: 0.023
4,GHDC (UniProt Q8N2G8),inactive: -0.02
5,GGT7 (UniProt Q9UJ14),inactive: 0.013
6,GALC (UniProt P54803),inactive: -0.023
7,GALNT1 (UniProt Q10472),inactive: -0.012
8,GABARAPL1 isoform 2 (UniProt Q9H0R8),active: -0.344
9,GEMIN5 (UniProt Q8TEQ6),inactive: -0.047
10,FOPNL (UniProt Q96NB1),inactive: -0.049
11,GDI1 (UniProt P31150),inactive: 0.026
12,GALNT2 (UniProt Q10471),inactive: -0.005
13,GCC2 (UniProt Q8IWJ2),inactive: -0.01
14,GATA1 (UniProt P15976),inactive: 0.16
15,GAGE12F (UniProt P0CL80),inactive: 0.034
16,FUCA2 (UniProt Q9BTY2),inactive: -0.002
17,GBF1 (UniProt Q92538),inactive: -0.131

# Compound: C[C@@H]1COCCN1C2=NC(=NC(=C2)C3(CC3)S(=O)(=O)C)C4=C5C=CNC5=CC=C4
# Assay: as above
# Summary of the method: as §1
row,Target,log2 fold change
1,GALNT11 (UniProt Q8NCW6),inactive: 0.112
2,GEMIN6 (UniProt Q8WXD5),inactive: 0.097
3,GALNT10 (UniProt Q86SR1),inactive: 0.057
4,FOSL1 (UniProt P15407),inactive: -0.077
5,GALNT4 (UniProt Q8N4A0),inactive: 0.156
6,FNTB (UniProt P49356),inactive: -0.035
7,FPGS (UniProt Q05932),inactive: 0.055
8,GAB2 (UniProt Q9UQC2),inactive: -0.361
9,FOXK1 (UniProt P85037),inactive: 0.897
10,GAPVD1 isoform 6 (UniProt Q14C86),inactive: 0.017
11,FUCA1 (UniProt P04066),inactive: 0.031
12,GCSH (UniProt P23434),inactive: 0.005
13,GCLM (UniProt P48507),inactive: 0.042
14,GALK1 isoform 2 (UniProt P51570),inactive: 0.037
15,GCDH (UniProt Q92947),inactive: 0.112
16,GDPD1 (UniProt Q8N9F7),inactive: 0.074
17,GEMIN2 (UniProt O14893),inactive: 0.001

row,Target,log2 fold change
1,GABPA (UniProt Q06546),inactive: 0.126
2,GARS1 (UniProt H7C443),inactive: 0.078
3,GATD1 (UniProt Q8NB37),inactive: -0.256
4,GHDC (UniProt Q8N2G8),inactive: 0.021
5,GGT7 (UniProt Q9UJ14),inactive: -0.128
6,GALC (UniProt P54803),inactive: 0.03
7,GALNT1 (UniProt Q10472),inactive: 0.019
8,GABARAPL1 isoform 2 (UniProt Q9H0R8),inactive: 0.048
9,GEMIN5 (UniProt Q8TEQ6),inactive: 0.038
10,FOPNL (UniProt Q96NB1),inactive: -0.329
11,GDI1 (UniProt P31150),inactive: 0.061
12,GALNT2 (UniProt Q10471),inactive: 0.093
13,GCC2 (UniProt Q8IWJ2),inactive: -0.104
14,GATA1 (UniProt P15976),inactive: -0.032
15,GAGE12F (UniProt P0CL80),inactive: 0.092
16,FUCA2 (UniProt Q9BTY2),inactive: 0.017
17,GBF1 (UniProt Q92538),inactive: 0.023
